# Results taken from PubChem BioAssay AID540256 (National Center for Advancing Translational Sciences (NCATS), 2011).
# About 3,700 (1.2%) of roughly 300,000 compounds were called active. Inconclusive means that the source gave no clear call. Such entries were picked first, then a sample of the others. The call rests on the fitted dose curve; tested in HEK293 cells. Potencies of inconclusive entries are doubtful fits and often do not repeat.
# Experiment: qHTS for Inhibitors of binding or entry into cells for Lassa Virus; further: nearly all actives have a fitted effect of over 50% in size
# Conditions: Lassa virus pseudotype entry inhibition, cell reporter; activity change, negative = inhibition: at 37.9 µM (top of the series) unless noted
# On the % scale 0 is the no-effect control and ±100 the full control effect; potency means the concentration at half of the fitted maximal effect.
Compound,"activity change, negative = inhibition",Potency
CCOC(=O)CSc1nnc(Cc2ccccc2)n1-c1cccc(Cl)c1,inactive: -1.36%,–
Cc1nc2ccc(NC(=O)c3sccc3C)cc2s1,–,"inconclusive: 1.41 µM [activator, partial curve, poor fit]"
O=C(NC12CC3CC(CC(C3)C1)C2)c1ccc(Br)o1,–,"inconclusive: 35.5 µM [inhibitor, single point]"
CN(C)CCNC(=O)c1ccc2c(c1)NC(=O)C(CS(=O)(=O)Cc1cccc(Br)c1)N2 (stereo not drawn),–,"inconclusive: 6.31 µM [activator, partial curve, poor fit]"
Cc1ccc(S(=O)(=O)N2CCCc3cc(NS(=O)(=O)c4cccc(Cl)c4)ccc32)cc1,–,"inconclusive: 35.5 µM [inhibitor, single point]"
COc1ccccc1NC(=O)CSc1nnc(NC(=O)Nc2ccc(C)cc2)s1,–,"inconclusive: 35.5 µM [inhibitor, single point]"
COc1cc(OC)c(C2CC(=O)N3CN(c4ccc(C)cc4)CSC3=C2C#N)cc1OC (stereo not drawn),inactive: 18.7%,–
O=C(CCN1C(=O)/C(=C/C=C/c2ccccc2)SC1=S)Nc1ccccn1,–,"inconclusive: 35.5 µM [inhibitor, single point]"
COc1ccc(S(=O)(=O)NCCc2csc3nc(-c4cccc(C)c4)nn23)cc1F,–,"inconclusive: 2.82 µM [inhibitor, partial curve, poor fit]"
COc1cccc2cc(C(=O)NCc3ccc(Cl)cc3)c(=N)oc12,–,"inconclusive: 3.16 µM [inhibitor, partial curve, poor fit]"
COc1ccccc1NC(=O)c1[nH]c(C)c(C(C)=O)c1C,inactive: 15%,–
CCOC(=O)c1cnc2c(OC)cccc2c1N1CCN(c2ccc(OC)cc2)CC1,–,"inconclusive: 35.5 µM [inhibitor, single point]"
Cc1ccc(C2=Nc3cccnc3C(c3ccccc3)=NN2)cc1,–,"inconclusive: 0.891 µM [activator, full curve, poor fit]"
CC1CCN(C(=O)CSc2nnc(-c3ccccc3)o2)CC1,–,"inconclusive: 31.6 µM [activator, single point]"
C=CCn1c(=N)n(CC(=O)c2cccc([N+](=O)[O-])c2)c2ccccc21,–,"inconclusive: 5.01 µM [activator, full curve, poor fit]"
Cc1ccc(-c2noc(CCC(=O)NC3CCCC3)n2)cc1,–,"inconclusive: 3.98 µM [inhibitor, partial curve]"
Cc1ccc(COCC(CC(C)C)N2CCN(C(=O)c3cccc(C(F)(F)F)c3)CCC2=O)cc1 (stereo not drawn),–,"inconclusive: 5.17 µM [inhibitor, full curve, poor fit]"
Cc1c(NC(=O)CSc2nnc(COc3ccccc3)n2-c2ccccc2)c(=O)n(-c2ccccc2)n1C,–,"inconclusive: 17.8 µM [activator, partial curve, poor fit]"
CC(=O)Nc1ccc(N2C(C(C)=O)=NN(c3ccc(Cl)cc3)C2c2sccc2C)cc1 (stereo not drawn),–,"inconclusive: 29.1 µM [inhibitor, single point]"
CC(C)Oc1cccc(C(=O)NC(=S)N2CCN(c3ccc(C(F)(F)F)cc3[N+](=O)[O-])CC2)c1,–,"inconclusive: 20 µM [inhibitor, partial curve, poor fit]"
Cc1cc(C)nc(S/C=C/C(=O)c2ccccc2F)n1,–,"inconclusive: 31.6 µM [inhibitor, single point]"

# Some of the entries so far, with tabs:
Compound	activity change, negative = inhibition	Potency
O=C(CCN1C(=O)/C(=C/C=C/c2ccccc2)SC1=S)Nc1ccccn1	–	inconclusive: 35.5 µM [inhibitor, single point]
COc1ccc(S(=O)(=O)NCCc2csc3nc(-c4cccc(C)c4)nn23)cc1F	–	inconclusive: 2.82 µM [inhibitor, partial curve, poor fit]

# (continued)

Compound,"activity change, negative = inhibition",Potency
COc1ccc(/C=N/Nc2cc(N3CCCC3)nc(N3CCCC3)n2)cc1,–,active: 3.16 µM
Cc1cc(N(CCCl)CCCl)ccc1C=Cc1ccncn1,–,"inconclusive: 2.82 µM [inhibitor, partial curve, poor fit]"
Cc1ccc(NC(=O)CN(c2ccc(Cl)cc2)S(=O)(=O)c2cc([N+](=O)[O-])ccc2Cl)cc1,–,"inconclusive: 18.4 µM [inhibitor, partial curve, poor fit]"
CCN(CC)CCCn1c2c(c(SCC(=O)Nc3nc4ccccc4s3)nc1=O)CCC2,–,"inconclusive: 15.8 µM [inhibitor, partial curve, poor fit]"
CSc1ccc(/C=N/NC(=O)c2sccc2C)cc1,–,"inconclusive: 3.16 µM [inhibitor, single point]"
COc1ccc(-n2cnc3cc(NCc4ccccn4)ccc32)cc1,–,"inconclusive: 7.3 µM [inhibitor, full curve]"
COc1ccc(-c2nnc3n(CCc4ccccc4)c(=O)c4ccccc4n23)c(OC)c1,–,"inconclusive: 31.6 µM [inhibitor, single point]"
S=C(NCCc1ccccc1)NC1CCCCCC1,–,"inconclusive: 22.4 µM [inhibitor, single point]"
COc1ccc(CN2CC(=O)N(c3ccccc3C)C2=S)cc1OC,–,"inconclusive: 20 µM [inhibitor, partial curve, poor fit]"
Cn1c(C(=O)N2CCN(Cc3ccc4c(c3)OCO4)CC2)cc2sccc21,–,"inconclusive: 1.3 µM [inhibitor, partial curve, poor fit]"
CCn1c(=O)c(C(=O)Nn2c(C)nc3ccccc3c2=O)c(O)c2ccccc21,–,"inconclusive: 0.891 µM [activator, partial curve, poor fit]"
O=C1/C(=C/c2cccs2)SC(=S)N1c1ccccc1,–,"inconclusive: 23.1 µM [inhibitor, partial curve]"
CC(C)OC(=O)c1ccc(OC(=O)c2cccnc2)cc1,inactive: 4.64%,–
COc1cc(C2c3cc4c(cc3OC(NCc3ccccc3)C2C)OCO4)cc(OC)c1OC (stereo not drawn),–,"inconclusive: 1.12 µM [inhibitor, full curve]"
COc1ccc(OC)c(C(=O)Nc2ccc3[nH]ccc3c2)c1,–,"inconclusive: 12.6 µM [inhibitor, single point]"
O=[N+]([O-])c1ccc(Cl)c(/C=N/n2c(COc3ccccc3)n[nH]c2=S)c1,–,"inconclusive: 1.3 µM [inhibitor, full curve, poor fit]"
S=C1NNC2(CC3CC2C2CCCC32)NN1 (stereo not drawn),–,"inconclusive: 20.6 µM [inhibitor, partial curve, poor fit]"
O=C(CN1CCCN(S(=O)(=O)c2ccc(Br)cc2)CC1)Nc1cccc(C(F)(F)F)c1,inactive: -0.142% [at 46.1 µM],–
O=C(C1CCN(C2CC(=O)N(Cc3ccccc3)C2=O)CC1)N1CCCCCC1 (stereo not drawn),–,"inconclusive: 1.26 µM [inhibitor, single point]"
CCOc1ccc(C(=O)NC(=S)Nc2cccc(NC(=O)c3ccco3)c2)cc1[N+](=O)[O-],–,"inconclusive: 35.5 µM [inhibitor, single point]"
O=C(Nc1ccc(Cl)c(Cl)c1)N1CCOCC1,–,"inconclusive: 0.316 µM [inhibitor, partial curve, poor fit]"

# One compound at a time, as listed above.
# Cc1cc(N(CCCl)CCCl)ccc1C=Cc1ccncn1 in the list: Potency: inconclusive: 2.82 µM [inhibitor, partial curve, poor fit]
# CCOc1ccc(C(=O)NC(=S)Nc2cccc(NC(=O)c3ccco3)c2)cc1[N+](=O)[O-] in the list: Potency: inconclusive: 35.5 µM [inhibitor, single point]

# Further records:

Compound,"activity change, negative = inhibition",Potency
CCCc1nnc(NC(=O)Cc2coc3ccc(C(C)C)cc23)s1,–,"inconclusive: 6.31 µM [inhibitor, full curve, poor fit]"
Cc1ccc(NC(=O)C2CC(=O)n3c(nc4ccccc43)N2)cc1Cl (stereo not drawn),–,"inconclusive: 1.26 µM [inhibitor, single point]"
COC(=O)CCN(Cc1cccc(OC)c1OC)S(=O)(=O)c1ccccc1Br,–,"inconclusive: 1.77 µM [inhibitor, partial curve, poor fit]"
CCOCCOC(=O)CCSc1n[nH]c(=O)[nH]c1=O,inactive: 10.9%,–
O=S(=O)(c1ccc(Cl)cc1)N1CCCC1c1cccnc1 (stereo not drawn),–,"inconclusive: 12.6 µM [inhibitor, partial curve, poor fit]"
C[C@@H](C(=O)Nc1ccc2ccccc2c1)[C@H]1C[C@]1(C)[C@H](NS(=O)(=O)c1ccc(-c2ccccc2)cc1)c1ccccc1,inactive: -20.6%,–
CC1CCN(c2nc3nonc3nc2Nc2ccc(F)cc2)CC1,–,"inconclusive: 35.5 µM [inhibitor, partial curve, poor fit]"
Cc1cc(C)c2nc(N(CCCN(C)C)C(=O)c3ccc4c(c3)OCCO4)sc2c1,–,"inconclusive: 10 µM [inhibitor, partial curve, poor fit]"
Cc1cc(C)n2nc(SCC(=O)N/N=C/c3ccccn3)nc2n1,inactive: 11.3%,–
O=C1c2ccccc2C(=O)c2cc(S(=O)(=O)Nc3ccccc3)ccc21,inactive: -1.91%,–
COc1ccc(C(=O)NC(=S)N2CCC(C)CC2)cc1Br,–,"inconclusive: 6.31 µM [inhibitor, full curve, poor fit]"
COc1ccc(S(=O)(=O)N2CN(Cc3ccco3)c3nc4ccccc4nc32)cc1,inactive: -11.5%,–
CCc1cccc(NC(=O)C2CCN(S(=O)(=O)c3cccs3)CC2)c1,inactive: -4.9%,–
O=C(C1CCC(Cn2c(=O)c3sccc3n(Cc3ccccc3)c2=O)CC1)N1CCCCC1 (stereo not drawn),inactive: 18.3% [at 46.1 µM],–
CCN1CCN(c2ccc(S(=O)(=O)N3CCCCC3)cc2NC(=O)c2ccc(OC(F)F)cc2)CC1,–,"inconclusive: 22.4 µM [inhibitor, partial curve, poor fit]"
Cc1ccc(C)c(N2CCN(C(=O)CCNS(=O)(=O)c3ccc4c(c3)CCN4C(=O)C3CC3)CC2)c1,–,"inconclusive: 10 µM [inhibitor, partial curve, poor fit]"
O=C(Nc1ccn(Cc2c(F)c(F)c(F)c(F)c2F)n1)c1ccc(COc2ccccc2Cl)cc1,–,"inconclusive: 16.4 µM [inhibitor, single point]"
COC(=O)c1ccccc1NC(=O)c1ccco1,inactive: 4.48%,–
Cc1cccnc1NC(N)=S,inactive: 4.43% [at 46.1 µM],–
Cc1cc(C)c(S(=O)(=O)NCC(=O)NCc2ccccn2)c(C)c1,–,"inconclusive: 14.1 µM [inhibitor, single point]"
COc1ccc(C(=O)COC(=O)c2ccc(Cl)nc2)c(OC)c1,–,"inconclusive: 35.5 µM [activator, single point]"
